Test results as given in patent US20090118314A1, “TUMOR SUPPRESSOR” (JAPAN AS REPRESENTED BY DIRECTOR GENERAL OF AGENCY CENTER, priority 2006, published 2009).

The chains behind the UniProt entries cited, without tags or fusion partners. Residues count along the entry.
UniProt P05121, 24-402 limits assumed: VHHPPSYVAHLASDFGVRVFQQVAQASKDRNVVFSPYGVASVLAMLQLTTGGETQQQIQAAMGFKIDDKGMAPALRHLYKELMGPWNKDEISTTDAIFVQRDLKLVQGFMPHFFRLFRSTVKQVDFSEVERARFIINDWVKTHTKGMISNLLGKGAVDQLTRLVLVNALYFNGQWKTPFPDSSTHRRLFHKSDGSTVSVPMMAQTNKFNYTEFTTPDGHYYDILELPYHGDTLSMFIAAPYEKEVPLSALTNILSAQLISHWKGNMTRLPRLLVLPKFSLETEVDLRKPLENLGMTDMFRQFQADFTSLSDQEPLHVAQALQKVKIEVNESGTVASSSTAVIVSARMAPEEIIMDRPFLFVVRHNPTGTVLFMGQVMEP

Target: PAI-1 (Homo sapiens, UniProt P05121)
Test: PAI-1 inhibitory activity using synthetic substrate S-2288
Conditions: read-out: PAI-1 inhibitory activity IC50
From the text: PAI-1 inhibitory activity can be measured using a synthetic substrate S-2288 according to the methods described in International Publication WO04/011442 pamphlet, International Publication WO04/10996 pamphlet, JP-A-2004-250401, etc.

COc1ccc(-c2nc(-c3ccc4cc(OCCCCCC(C(=O)O)C(=O)O)ccc4c3)oc2-c2ccc(OC)cc2)cc1
IC50: 360 nM

The match of structure and compound is tentative.
